For at least one entry, the source does not settle the construct or the ends of the probe. For some of these results: Weaker means in comparison with the reference protein, sequence or condition of that experiment. At least one verdict rests on a figure or table, not on a statement of the authors. For some of these results: Where a protein sequence is shown, tags need not be part of it.
Assays:
[1] = target: HMfB (Methanothermus fervidus) (UniProt P19267); assay: EMSA; conditions: EMSA: 25 mM Tris pH 8.0, 50 mM NaCl, 50 mM KCl, 37 C 10 min; recombinant protein
[2] = target: T1, HLp (Leptospira perolatii) (UniProt A0A2M9ZN55); assay: EMSA; conditions: EMSA: 25 mM Tris pH 8.0, 50 mM NaCl, 50 mM KCl, 37 C 10 min; recombinant protein; residues 1-63; protein details: N-terminal His6, cleaved with TEV protease
T1 sequence (looked up): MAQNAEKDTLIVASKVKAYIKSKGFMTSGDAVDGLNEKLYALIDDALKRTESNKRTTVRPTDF

Amino acid sequences for entries named in this document (tags omitted). A change or cut given only in a name is not applied to a line headed by its entry.
UniProt P19267: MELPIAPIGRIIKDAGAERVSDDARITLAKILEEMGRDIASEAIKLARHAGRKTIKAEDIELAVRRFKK

CCGTACTGTCGTCTGCGGCCTTTGATTATCAATTAAAGCGTTCTACGGCGTTTTTGATCGCTCAACGTGCGGAGCTAGAT (double strand) [80-bp DNA]
binding result [1]: binds

TTAAAGCCCGTTAAAGCCCGTTAAAGCCCG (double strand) [30-bp-GC50]
binding result [2]: binds more weakly

TTAAGCCCCGTTAAGCCCCGTTAAGCCCCG (double strand) [30-bp-GC60]
binding result [2]: binds more weakly

TTTAAAACGCTTTAAAACGCTTTAAAACGC (double strand) [30-bp-GC30]
binding result [2]: binds more weakly
